The supplement of paper PMC11732987, “Enantioselective OTUD7B fragment discovery through chemoproteomics screening and high-throughput optimisation” (Communications Chemistry, 2025)
The list shows a part of the results. The data scatter; read single values as rough.

molecular target: SARS1 C438 (UniProt Q5T5C7); assay: log2 mean competition ratio of IA-DTB cysteine labelling (DMSO/compound) (log2 ratio); higher = stronger cysteine engagement by compound; conditions: 50 µM; treatment time: 4 h; cell line lysate: HEK293T
Method: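 IA-DTB competitive cysteine chemoproteomics in HEK293T RIPA lysate. Lysates were treated with compound 29 or 30 at 50 or 200 µM for 4 h, then IA-DTB (500 µM, 1 h), trypsin-digested, NeutrAvidin-enriched and analysed by diaPASEF. Competition ratio = intensity DMSO / intensity compound (n=4 treated, n=64 DMSO); binding: mean log2 CR ≥ 1 and p ≤ 0.05 plus QC filters. Target is the cysteine site.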

| Structure (SMILES) | log2 mean competition ratio |
| --- | --- |
| O=C(CCl)N[C@@H]1CCCc2ccccc21 | -0.0785 |
| O=C(CCl)N[C@H]1CCCc2ccccc21 | -0.0892 |

same assay, conditions: 200 µM; treatment time: 4 h; cell line lysate: HEK293T

| Structure (SMILES) | log2 mean competition ratio |
| --- | --- |
| O=C(CCl)N[C@@H]1CCCc2ccccc21 | -0.299 |
| O=C(CCl)N[C@H]1CCCc2ccccc21 | -0.247 |
